Measured values taken from PubChem BioAssay AID540335 (Broad Institute, 2011).
Out of some 1,300 compounds screened, about 270 (21%) were called active.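 The calls were made as follows: active = dose-dependent rise or fall in viability, either side of zero, with half-maximal concentration at or below a set limit; inconclusive = flat curve at 30 to 70% viability loss, or poor fit; inactive = flat within 30% either way, or potency beyond limit.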 The list shows a part of the results. Measured potencies and affinities stand elsewhere.

Assay: proliferation inhibition in MITF-low A375 cells – cell-based, cherry-pick samples, set 2, counter-screen for MITF modulator project, dose response (AID 540335);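 also: A375 human melanoma cells which do not depend on MITF; 0% = median of neutral control wells and 100% = double that signal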
Conditions: CellTiter-Glo ATP luminescence, 24 h; at 35 µM (top of the series)

Structure (SMILES)	activity change, negative = decreased viability
Cc1ccc(O)c(NC(=O)c2ccc3c(c2)C(=O)N(CC(C)C)C3=O)c1	inactive: -0.369%
CCN1CCN(c2ccc(S(=O)(=O)N3CCCCC3)cc2NC(=O)/C=C/c2ccc([N+](=O)[O-])cc2)CC1	inactive: -9.5%
Cc1ccc2nc(-c3ccncc3)[nH]c2c1	inactive: -3.24%
CCOc1ccc(-n2c(O)c(/C=N/Nc3nc(C)cc(C)n3)c3ccccc3c2=O)cc1	inactive: -7.25%
N=c1n(CCN2CCCC2)c2ccccc2n1CC(O)c1ccc(Cl)c(Cl)c1 (configuration not stated)	inactive: -89.6%
COc1ccc(-c2cc(-c3ccc(OC)c(OC)c3)n[nH]2)c(O)c1	inactive: -7.59%
N#C/C(=C\c1ccc(OCc2ccc(C(=O)O)cc2)cc1)C(=O)N1CCOCC1	inactive: -3.63%
COc1ccc(N(CC(=O)NCC2CCCO2)S(=O)(=O)c2ccccc2)cc1OC (configuration not stated)	inactive: -0.293%
Cc1ccc(SCCSc2ncccn2)cc1	inactive: -15.2%
COc1ccccc1-c1nnc(-c2ccc(C)cc2)o1	inactive: 7.71%
COCc1nc(-c2ccc(-c3ccccc3)nc2OC)no1	inactive: 3.8%
COc1ccc(NC(C)C(=O)N/N=C/c2ccc([N+](=O)[O-])s2)cc1 (configuration not stated)	inactive: 2.8%
Cc1ccc(C)c(S(=O)(=O)N2CCN(Cc3ccc(O)c4ncccc34)CC2)c1	inactive: -30.3%
O=[N+]([O-])c1ccc(/C=N/n2c(CO)nc3ccccc32)s1	inactive: -12.5%
COc1ccc(-c2csc(Nc3ccccn3)n2)cc1OC	inactive: 8.18%
C=CCNC(=O)c1ccc2nc(Cc3ccc(OC)cc3)oc2c1	inactive: 1.63%
Brc1ccc(-c2cn3cccnc3n2)cc1	inactive: 6.27%
C/C(=N\NC(=O)C1COc2ccccc2O1)c1ccccn1 (configuration not stated)	inactive: -32.6%
CC(C)N1C(=O)S/C(=C\c2ccc(-c3ccc(Cl)c(C(=O)O)c3)o2)C1=O	inactive: -2.37%
Clc1ccccc1CSc1nnc(-c2ccncc2)o1	inactive: 11.3%
COc1cc(SC)ccc1C(=O)NCCOc1ccccc1Cl	inactive: 10.6%
N#CC(C#N)=C1C=CC=CN1/C(=C\c1ccco1)C(=O)c1ccc(Br)cc1	inactive: 45.1%
Cc1oc(=O)c(NC(=O)c2ccccc2)cc1C(=O)c1ccccc1	inactive: 9.47%
CC(=O)Nc1ccc2c(c1)ncn2-c1ccccc1	inactive: 8.14%
O=C(NCc1ccccc1)C(=O)Nc1cccc(C(=O)O)c1	inactive: 3.7%

Structure (SMILES)	activity change, negative = decreased viability
CCS(=O)(=O)c1ccc(N=Nc2ccc(O)c3ncccc23)c(OC)c1	inactive: -34%
CN(Cc1ccccc1)C1=CC(=[N+]2CCCC2)CC(C)(C)C1	inactive: -13.8%
C/C(=N/Nc1nc(C)c(C)s1)c1cccc([N+](=O)[O-])c1	inactive: 1.49%
CCCCOc1ccc(-c2ncc([N+](=O)[O-])cn2)cc1	inactive: 8.06%
Cn1c(=O)c([N+](=O)[O-])c(-n2ccnc2)c2ccccc21	inactive: -0.212%
O=C(CN1CCCCC1)Nc1scc2c1c(=O)oc1ccccc12	inactive: 4.14%
O=C1CN(c2ccccc2)C(=S)N1C(=O)c1ccccc1	inactive: 11.4%
COc1ccccc1-c1nc(-c2ccc(C)nc2OC)no1	inactive: 10.9%
Cc1cc(O)ccc1Nc1nc(-c2cccnc2)cs1	inactive: -1.4%
O=C(/C=C/c1ccccc1Cl)NC1CCCCC1	inactive: 7.8%
COc1ccc(C(=O)/C=C(\C)Nc2ccc3c(c2)OCO3)cc1	inactive: 0.308%
COc1cc(SC)ccc1C(=O)Nc1ncc(C)s1	inactive: -13.6%
CS(=O)(=O)N1CCN(c2nc3ccc(Cl)cc3s2)CC1	inactive: 1.7%
O=S1(=O)CCC(NC(=S)SCc2ccccc2Br)C1 (configuration not stated)	inactive: 3.82%
O=C(NCc1cccs1)c1nc2c(nnn2Cc2ccccc2Cl)c(=O)[nH]1	inactive: -21.2%
Cc1ccc(NC(=O)CCl)cc1S(=O)(=O)N1CCCCCC1	inactive: -23.1%
Cc1ccc(OCC(=O)N/N=C/c2ccc([N+](=O)[O-])o2)cc1	inactive: -2.81%
N#Cc1nc(/C=C/c2ccccc2)oc1NCCCN1CCOCC1	inactive: 4.72%
Cc1ccccc1C(=O)N/N=C/c1ccc([N+](=O)[O-])s1	inactive: -20.2%
O=C1CN(C(=O)Cn2ncc(Cl)c(Cl)c2=O)c2ccccc2N1	inactive: 36.1%
CC(=O)Oc1c(C(=O)c2nnc(C)o2)c(=O)n(Cc2ccccc2)c2ccccc12	inactive: -8.69%
O=C(Nc1ccc(S(=O)(=O)NC2=NCCCCC2)cc1)c1ccc([N+](=O)[O-])s1	inactive: -24.7%
O=C1c2ccccc2CN1c1ccccc1	inactive: -6.69%
CC1Cc2ccccc2N1C(=O)c1ccc(Br)o1 (configuration not stated)	inactive: -36.8%
COc1cc(CN2CCC(C(N)=O)CC2)ccc1OCc1ccccc1	inactive: 0.046%

Individual results from the list.
O=C(NCc1cccs1)c1nc2c(nnn2Cc2ccccc2Cl)c(=O)[nH]1 | activity change, negative = decreased viability: inactive: -21.2%
Cc1cc(O)ccc1Nc1nc(-c2cccnc2)cs1 | activity change, negative = decreased viability: inactive: -1.4%
O=S1(=O)CCC(NC(=S)SCc2ccccc2Br)C1 (configuration not stated) | activity change, negative = decreased viability: inactive: 3.82%
CCS(=O)(=O)c1ccc(N=Nc2ccc(O)c3ncccc23)c(OC)c1 | activity change, negative = decreased viability: inactive: -34%

(further entries)

Structure (SMILES)	activity change, negative = decreased viability
O=C(O)c1cccc(NC(=O)c2cccc(NC(=O)C3CCCO3)c2)c1 (configuration not stated)	inactive: 0.815%
Cc1ccc(NC(=O)C2CCN(S(=O)(=O)c3c(C)noc3/C=C/c3ccco3)CC2)nc1	inactive: -20.7%
COc1ccc(NC(=O)c2cc3ccccc3[nH]2)cc1	inactive: 1.75%
COc1ccc(/C=N/NC(=O)Cc2cccs2)cc1	inactive: 14.8%
Cc1nc2cc(NC(=O)Nc3cccc([N+](=O)[O-])c3)ccc2n1C	inactive: 6.25%
O=C1CCC2S/C(=C/Nc3ccc(C(F)(F)F)cc3)C(=O)N12 (configuration not stated)	inactive: 15.7%
N#CC(C#N)=C1C=CC=CN1/C(=C\c1ccco1)C(=O)c1ccc(Cl)cc1	inactive: 75.5%
COc1ccc(/C=C2\SC(=O)N(CCCC(=O)Nc3cc(Cl)ccc3C(=O)O)C2=O)cc1	inactive: 10.5%
CN(C)c1ccc(NC(=O)Nc2ccc3c(c2)nnn3C)cc1	inactive: 6.32%
O=C(CCl)Nc1cn(-c2ccccc2)nc1-c1ccccc1	inactive: 14.5%
CN(c1ccc2nc3ccccc3c(=O)n2n1)C1CCCCC1	inactive: -34.4%
CCc1ccccc1NC(=O)CN(C)C(=O)Cn1ncc(Cl)c(Cl)c1=O	inactive: 80.5%
O=C(CSCC(=O)Nc1ccccc1)N/N=C/c1c(O)ccc2ccccc12	inactive: -31.7%
Cn1cc([N+](=O)[O-])c(C(=O)Nc2nc(-c3ccc(Cl)cc3)cs2)n1	inactive: -6.64%
COc1ccc(C(=O)Nc2ccc3ccccc3c2)cc1OC	inactive: 10.4%
Cc1ccc2nc(NC(=O)c3ccc(Br)o3)sc2c1	inactive: -0.809%
O=C(CCl)Nc1cccc(S(=O)(=O)N2CCCCCC2)c1	inactive: -32%
Clc1c(-c2ccccc2)nc2ccccn12	inactive: 7.16%
Cc1cc(C(F)(F)F)c2c(N)c(C(=O)Nc3cc(C)on3)sc2n1	inactive: -4.72%
CC(/C=N/NC(=O)c1cc(-c2ccncc2)nc2ccccc12)=C\c1ccco1	inactive: 14.4%
C=CCn1c(C)cc(C(=O)Cn2ncc(Cl)c(Cl)c2=O)c1C	inactive: -34.1%
Cc1nc2ccccn2c1C(=O)N/N=C/c1ccc([N+](=O)[O-])o1	inactive: -19.2%
Cc1ccc(-c2cn(-c3ccc(SC(F)F)cc3)c3[n+]2CCC3)cc1	inactive: -14.1%
Cc1ccc(NC(=O)c2ccc(OCC3CCCO3)cc2)c(C)c1 (configuration not stated)	inactive: -0.884%
CN1CCN(C2=C(NS(=O)(=O)c3ccccc3)C(=O)c3ccccc3C2=O)CC1	inactive: -10%

Structure (SMILES)	activity change, negative = decreased viability
Cc1ccc2c(c1)COc1c3ccc(C(=O)O)cc3nn1-2	inactive: -25.5%
CCOc1ccc(OCc2ccc(C(=O)N/N=C(\C)c3ccccn3)cc2)cc1	inactive: -13.6%
CCOc1ccccc1NC(=O)C1C2CCC(O2)C1C(=O)O (configuration not stated)	inactive: 6.49%
COCCN(C(=O)CCl)C(C(=O)NC1CCCCC1)c1ccccc1C (configuration not stated)	inactive: 11%
O=C(NCc1ccco1)c1nc2c(nnn2Cc2ccccc2Cl)c(=O)[nH]1	inactive: -24.3%
Cc1nc2ccc(NC(=O)c3ccco3)cc2nc1C	inactive: 14.5%
COc1ccc(O)c(/C=N/NC(=O)c2ccc(CSc3nc(C)cc(C)n3)cc2)c1	inactive: -33.7%
Cc1nn(C)cc1/C=C/C(=O)c1cccs1	inactive: 8.61%
COCCn1c(C)cc(C(=O)COC(=O)c2ccccc2Br)c1C	inactive: -16.4%
CC(=O)c1cccc(Nc2nc(-c3cccnc3)cs2)c1	inactive: 1.85%
COc1ccc(C(=O)Nc2ccc3c(c2)OCCO3)cc1Br	inactive: 2.12%
Cc1cn(CCC(=O)Nc2ccccc2N2CCOCC2)c2ccccc12	inactive: 9.99%
CCCCOc1ccc(-c2nnn(C(C)(C)C(=O)OC)n2)cc1	inactive: -1.6%
COc1cccc(-c2csc3ncnc(Sc4nnnn4C)c23)c1	inactive: 1.76%
CC(=O)Cn1ncc(Br)c(Br)c1=O	inactive: 23.4%
Cc1ccc2cc(NC(=O)Cc3ccccc3)ccc2n1	inactive: 2.73%
CCOC(=O)N1C(=O)[C@](CC)(c2ccccc2)N1C(=O)OCC	inactive: -8.51%
O=C(Nc1ccccc1Cl)Nc1cccc2cccnc12	inactive: 4.22%
Cc1ccc(-c2c[n+](Cc3ccc(Cl)cc3)c3n2CCC3)cc1	inactive: -3.64%
CC(C)C(=O)NC(c1ccco1)c1ccc2cccnc2c1O (configuration not stated)	inactive: -33.6%
CCOC(=O)c1nnn(-c2ccc([N+](=O)[O-])cc2[N+](=O)[O-])c1C	inactive: -24.6%
c1ccc(OCc2nc3ccccc3[nH]2)cc1	inactive: -2.76%
